From patent US9493435B2, “IRE-1α inhibitors” (MannKing Corporation, priority 2009, dated 2016) come the findings set out here.

The chains behind the UniProt entries cited, without tags or fusion partners. Residues count along the entry.
UniProt O75460, 19-977 limits assumed: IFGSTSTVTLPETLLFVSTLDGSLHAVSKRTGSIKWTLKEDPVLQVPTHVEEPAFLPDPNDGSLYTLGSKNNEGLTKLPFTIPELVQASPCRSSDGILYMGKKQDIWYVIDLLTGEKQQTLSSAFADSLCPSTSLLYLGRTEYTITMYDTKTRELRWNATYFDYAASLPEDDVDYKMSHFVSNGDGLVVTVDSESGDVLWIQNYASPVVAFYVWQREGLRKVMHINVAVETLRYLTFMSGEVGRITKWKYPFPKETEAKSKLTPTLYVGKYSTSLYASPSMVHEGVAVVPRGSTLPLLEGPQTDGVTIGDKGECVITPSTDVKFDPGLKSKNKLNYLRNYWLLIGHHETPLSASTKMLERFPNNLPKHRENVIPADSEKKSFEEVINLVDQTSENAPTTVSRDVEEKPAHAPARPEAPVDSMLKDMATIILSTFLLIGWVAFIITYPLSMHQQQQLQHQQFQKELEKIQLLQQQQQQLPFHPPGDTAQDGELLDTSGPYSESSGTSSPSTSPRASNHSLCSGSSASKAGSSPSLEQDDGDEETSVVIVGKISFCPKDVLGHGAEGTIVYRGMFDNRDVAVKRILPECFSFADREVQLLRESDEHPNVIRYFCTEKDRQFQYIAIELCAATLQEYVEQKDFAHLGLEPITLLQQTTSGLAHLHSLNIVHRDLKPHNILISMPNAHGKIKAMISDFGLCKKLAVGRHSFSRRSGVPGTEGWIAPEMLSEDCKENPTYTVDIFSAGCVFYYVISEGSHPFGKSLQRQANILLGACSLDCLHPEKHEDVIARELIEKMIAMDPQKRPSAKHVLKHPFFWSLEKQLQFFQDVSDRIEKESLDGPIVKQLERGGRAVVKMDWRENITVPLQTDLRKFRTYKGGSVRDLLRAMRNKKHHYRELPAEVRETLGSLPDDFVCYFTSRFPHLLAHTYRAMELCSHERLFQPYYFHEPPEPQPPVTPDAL

Where two headings read alike, the source gives them in different places. The match of structure and compound is tentative.

Experiment [1] has as its system IRE-1α-mediated XBP-1 splicing in human myeloma MM.1s cells. Briefly: Cellular XBP-1 splicing assay in myeloma cells (RT-PCR). To be noted: read-out: EC50_av, average EC50, endogenous XBP-1 splicing in myeloma cells, DTT stress.
The target in experiment [2] is human IRE-1α (GST-IRE-1α) (Homo sapiens (Human), UniProt O75460). Briefly: IRE-1α assay (cleavage of mini-XBP-1 mRNA stem-loop substrate). Type of experiment: biochemical. To be noted: read-out: IC50_av; average IC50 for inhibition of IRE-1α in vitro; tested form: HCl.

With `O=Cc1c(O)ccc2ccc(N3CCC(N4CCCCC4)C3)cc12` (stereo not shown) [Compound 137], the EC50 in experiment [1] was over 10 µM.

For the compound `CN(Cc1ccccc1)C1CCN(c2ccc3c(C=O)c(O)ccc3c2)C1` (stereo not shown) [Compound 146], in experiment [1], the EC50 is over 10 µM.

On to `O=Cc1c(O)ccc2cc(N3CCC(NCc4ccccn4)CC3)ccc12` [Compound 114], for which the EC50 in experiment [1] (tested form: HCl) was over 10 µM.

In the case of `O=Cc1c(O)ccc2cc(N3CCC(NCc4ccccc4)CC3)ccc12` [Compound 97], the EC50 in experiment [1] (tested form: HCl) is over 10 µM.

As to `O=Cc1c(O)ccc2cc(N3CCC(NCc4cccnc4)CC3)ccc12` [Compound 116], the EC50 in experiment [1] (tested form: HCl) is under 10 µM.

For `O=Cc1c(O)ccc2cc(N3CCCC(NCc4ccccn4)C3)ccc12` (stereo not shown) [Compound 108], the EC50 in experiment [1] (tested form: HCl) is over 10 µM. The IC50 in experiment [2] was under 1 µM.
